Experimental data from patent US20190040153A1 (Novartis, published 2019).

Target: human β-klotho extracellular domain (human)
Experiment: hydrogen deuterium exchange epitope mapping of the mAb-β-klotho ECD complex

B1: version of NOV004 that has a human IgG1-LALA isotype (antibody, V domains shown)
VH: EVQLVESGGGLVKPGGSLRLSCAVSGYSITSGYTWHWVRQAPGKGLEWLSYIHYSVYTNYNPSVKGRFTISRDTAKNSFYLQMNSLRAEDTAVYYCARRTTSLERYFDVWGQGTLVTVSS
VL: DIQMTQSPSSLSASVGDRVTITCQASQDISNYLNWYQQKPGKAPKLLIYYTSRLQSGVPSRFTGSGSGADYTFTISSLQPEDIATYFCQQGNTLPYTFGQGTKLEIK
Q: For B1, which binding is on record?
A: binds

Results are given in words; binding and its absence hold for the method and conditions named. A result given as binding can be weak or reduced; the word gives no strength.
